Laboratory results published in publication PMC9964377.
Results are given in words; binding and its absence hold for the method and conditions named. In cells and extracts the contact can be indirect. Some binding calls cover weakened binding; strength is not graded here. Tags and fused reporters may be left off the sequences shown.

Sequences of proteins named here, by UniProt entry; tags and fusion partners are left off.
UniProt Q06945: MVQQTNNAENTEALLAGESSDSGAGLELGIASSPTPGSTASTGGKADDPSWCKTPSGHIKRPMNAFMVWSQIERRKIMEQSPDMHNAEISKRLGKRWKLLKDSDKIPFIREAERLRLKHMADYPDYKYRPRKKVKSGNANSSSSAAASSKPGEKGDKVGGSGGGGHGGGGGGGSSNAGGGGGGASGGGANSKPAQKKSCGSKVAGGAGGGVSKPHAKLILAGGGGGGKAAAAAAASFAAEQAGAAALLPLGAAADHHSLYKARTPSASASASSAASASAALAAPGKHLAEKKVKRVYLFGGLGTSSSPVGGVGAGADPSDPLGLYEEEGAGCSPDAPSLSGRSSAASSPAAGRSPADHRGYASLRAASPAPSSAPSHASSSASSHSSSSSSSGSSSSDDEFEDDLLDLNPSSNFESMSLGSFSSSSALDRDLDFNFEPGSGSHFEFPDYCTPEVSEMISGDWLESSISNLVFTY

Molecular target: T1, POU3F2, Small BiT fusion protein (UniProt P20265)
T1 sequence: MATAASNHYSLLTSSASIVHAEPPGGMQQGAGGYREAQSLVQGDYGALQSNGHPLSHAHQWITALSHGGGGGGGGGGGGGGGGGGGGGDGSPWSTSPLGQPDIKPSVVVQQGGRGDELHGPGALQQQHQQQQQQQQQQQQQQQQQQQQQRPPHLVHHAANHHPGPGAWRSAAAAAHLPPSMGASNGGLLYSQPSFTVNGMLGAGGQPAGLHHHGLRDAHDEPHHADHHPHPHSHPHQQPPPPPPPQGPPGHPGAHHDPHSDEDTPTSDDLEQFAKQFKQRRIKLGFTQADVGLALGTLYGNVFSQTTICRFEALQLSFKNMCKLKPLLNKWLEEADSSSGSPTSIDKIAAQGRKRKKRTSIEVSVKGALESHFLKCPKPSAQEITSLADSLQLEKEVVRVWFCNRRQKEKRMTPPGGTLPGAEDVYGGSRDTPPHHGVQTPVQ
Assay: split reporter; HEK293 cells co-transfected with 250 ng SOX4-Large BiT vector (pBiT1.1-C-myc) and 250 ng POU3F2-Small BiT vector (pBiT2.1-N-FLAG); luminescence read one day after transfection (NanoBiT PPI System)

binding: binds
Substance: SOX4 wildtype, Large BiT fusion protein (from UniProt Q06945 1-474)
